Measured values: article PMC9167300
No constants are given. Whether binding was seen depends on the method and setting. In cells and extracts the contact can be indirect. Some binding calls cover weakened binding; strength is not graded here. Each block holds one substance with its values, some of them ahead of it.

Protein sequences, listed by entry. Tags and fused reporters are not part of them. Lines headed by an entry give the natural chain unless they say otherwise; changes in a name come on top. Chains listed by the source or under a name are the forms on record and can include a tag or linker. Residues count along the entry.
UniProt Q8R455: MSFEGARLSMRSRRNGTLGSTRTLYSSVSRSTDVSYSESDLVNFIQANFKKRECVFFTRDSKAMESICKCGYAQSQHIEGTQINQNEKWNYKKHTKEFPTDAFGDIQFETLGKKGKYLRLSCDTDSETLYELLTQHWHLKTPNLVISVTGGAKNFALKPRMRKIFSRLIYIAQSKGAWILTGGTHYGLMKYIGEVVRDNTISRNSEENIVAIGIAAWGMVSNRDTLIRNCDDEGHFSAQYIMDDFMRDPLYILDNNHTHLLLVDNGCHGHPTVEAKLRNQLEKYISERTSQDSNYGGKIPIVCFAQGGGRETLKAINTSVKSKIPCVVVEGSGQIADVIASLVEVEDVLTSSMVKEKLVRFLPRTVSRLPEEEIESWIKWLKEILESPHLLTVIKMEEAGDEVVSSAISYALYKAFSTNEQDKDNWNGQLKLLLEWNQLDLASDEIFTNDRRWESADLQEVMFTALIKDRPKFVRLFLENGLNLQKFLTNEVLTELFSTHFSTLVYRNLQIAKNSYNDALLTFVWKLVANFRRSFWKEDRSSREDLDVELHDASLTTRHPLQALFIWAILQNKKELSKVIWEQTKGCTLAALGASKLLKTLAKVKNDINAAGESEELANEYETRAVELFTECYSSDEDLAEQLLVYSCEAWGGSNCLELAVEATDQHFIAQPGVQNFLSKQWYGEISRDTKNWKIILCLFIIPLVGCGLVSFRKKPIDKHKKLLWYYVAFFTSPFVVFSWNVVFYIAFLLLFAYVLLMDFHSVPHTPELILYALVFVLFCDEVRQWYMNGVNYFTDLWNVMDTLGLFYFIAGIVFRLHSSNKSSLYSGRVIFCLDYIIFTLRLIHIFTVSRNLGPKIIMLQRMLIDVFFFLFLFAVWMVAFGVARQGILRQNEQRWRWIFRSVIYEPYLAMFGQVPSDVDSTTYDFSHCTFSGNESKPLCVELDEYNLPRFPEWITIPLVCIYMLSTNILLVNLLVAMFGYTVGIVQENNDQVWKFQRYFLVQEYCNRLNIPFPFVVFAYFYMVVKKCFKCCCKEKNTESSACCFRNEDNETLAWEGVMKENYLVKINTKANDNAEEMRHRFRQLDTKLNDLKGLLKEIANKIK
Flag-tagged N-terminus of TRPM8 (Flag-M8N): residues 1-691 of Q8R455
GST-tagged C-terminus of TRPM8 (GST-M8C): residues 980-1104 of Q8R455
UniProt Q7Z2W7: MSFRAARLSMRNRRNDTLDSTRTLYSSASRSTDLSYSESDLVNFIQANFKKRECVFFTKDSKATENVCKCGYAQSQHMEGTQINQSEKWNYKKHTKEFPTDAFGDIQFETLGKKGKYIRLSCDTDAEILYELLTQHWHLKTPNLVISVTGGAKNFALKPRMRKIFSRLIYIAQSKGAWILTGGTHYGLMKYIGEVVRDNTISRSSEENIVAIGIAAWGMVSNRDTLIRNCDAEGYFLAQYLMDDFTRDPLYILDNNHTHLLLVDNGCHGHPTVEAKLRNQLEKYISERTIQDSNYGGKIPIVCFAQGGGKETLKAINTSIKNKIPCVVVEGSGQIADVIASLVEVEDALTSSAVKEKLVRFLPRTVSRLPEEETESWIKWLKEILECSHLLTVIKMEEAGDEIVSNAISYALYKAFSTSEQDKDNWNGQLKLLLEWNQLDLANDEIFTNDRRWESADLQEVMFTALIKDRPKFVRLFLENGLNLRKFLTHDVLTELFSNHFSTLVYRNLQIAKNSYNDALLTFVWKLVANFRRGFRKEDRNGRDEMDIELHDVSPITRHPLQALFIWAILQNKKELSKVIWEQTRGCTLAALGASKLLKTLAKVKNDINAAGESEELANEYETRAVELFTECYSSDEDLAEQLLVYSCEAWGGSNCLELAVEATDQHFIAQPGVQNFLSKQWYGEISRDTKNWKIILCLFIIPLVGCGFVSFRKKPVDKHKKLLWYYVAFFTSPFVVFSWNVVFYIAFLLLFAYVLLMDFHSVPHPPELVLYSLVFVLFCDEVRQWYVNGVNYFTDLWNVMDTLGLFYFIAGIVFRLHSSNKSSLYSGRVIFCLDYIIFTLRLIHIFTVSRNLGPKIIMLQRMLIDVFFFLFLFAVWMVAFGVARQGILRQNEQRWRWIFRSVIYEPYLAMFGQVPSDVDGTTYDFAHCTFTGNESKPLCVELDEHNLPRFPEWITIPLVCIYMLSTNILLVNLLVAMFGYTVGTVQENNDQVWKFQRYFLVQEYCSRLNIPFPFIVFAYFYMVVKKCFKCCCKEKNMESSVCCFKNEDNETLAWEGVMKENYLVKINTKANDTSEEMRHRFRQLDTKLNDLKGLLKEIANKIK
UniProt P63104: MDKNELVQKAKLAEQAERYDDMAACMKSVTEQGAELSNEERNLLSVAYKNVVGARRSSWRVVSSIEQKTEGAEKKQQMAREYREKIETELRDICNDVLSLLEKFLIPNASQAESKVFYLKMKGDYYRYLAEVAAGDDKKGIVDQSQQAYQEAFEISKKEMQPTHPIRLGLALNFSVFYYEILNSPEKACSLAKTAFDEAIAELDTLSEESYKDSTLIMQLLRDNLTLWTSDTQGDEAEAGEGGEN
UniProt P51451: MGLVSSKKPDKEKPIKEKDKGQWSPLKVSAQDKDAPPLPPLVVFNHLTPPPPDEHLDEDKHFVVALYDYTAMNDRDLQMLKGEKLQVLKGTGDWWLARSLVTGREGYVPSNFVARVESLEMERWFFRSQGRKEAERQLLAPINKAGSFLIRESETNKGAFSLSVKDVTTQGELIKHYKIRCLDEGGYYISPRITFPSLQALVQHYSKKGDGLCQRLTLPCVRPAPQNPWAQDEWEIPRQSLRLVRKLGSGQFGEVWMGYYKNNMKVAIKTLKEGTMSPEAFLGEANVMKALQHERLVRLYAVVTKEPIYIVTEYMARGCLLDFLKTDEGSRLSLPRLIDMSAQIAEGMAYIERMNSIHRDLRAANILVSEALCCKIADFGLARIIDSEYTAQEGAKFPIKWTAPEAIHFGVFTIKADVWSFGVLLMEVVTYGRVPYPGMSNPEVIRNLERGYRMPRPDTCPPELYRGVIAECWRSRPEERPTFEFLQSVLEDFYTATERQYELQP
UniProt P06239: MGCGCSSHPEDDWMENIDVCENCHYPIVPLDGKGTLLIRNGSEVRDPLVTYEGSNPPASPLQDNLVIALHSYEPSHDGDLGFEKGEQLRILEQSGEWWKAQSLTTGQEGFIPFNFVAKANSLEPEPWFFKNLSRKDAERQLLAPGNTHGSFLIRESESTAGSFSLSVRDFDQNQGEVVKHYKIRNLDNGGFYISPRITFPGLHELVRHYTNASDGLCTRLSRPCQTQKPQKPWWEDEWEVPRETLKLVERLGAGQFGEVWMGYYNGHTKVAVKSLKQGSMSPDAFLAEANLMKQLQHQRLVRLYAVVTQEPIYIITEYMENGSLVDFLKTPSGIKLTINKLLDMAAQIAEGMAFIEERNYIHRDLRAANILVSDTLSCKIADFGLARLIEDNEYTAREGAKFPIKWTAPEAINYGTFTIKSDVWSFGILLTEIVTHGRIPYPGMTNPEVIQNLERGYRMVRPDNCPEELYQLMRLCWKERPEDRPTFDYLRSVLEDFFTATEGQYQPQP

Columns and labels:
[1] = molecular target: Flag-tagged full-length TRPM8 (Flag-TRPM8) (rat) (UniProt Q8R455); test: co-IP; HEK293T cells transfected; IP with anti-Flag (or anti-HA) antibody; with or without HA-LCK, siLCK or 10 μM PP2; Western blot
[2] = molecular target: Flag-tagged mutant TRPM8-Y1022F (Flag-M8-Y1022F) (rat) (UniProt Q8R455); test: as above
[3] = molecular target: Flag-tagged full-length TRPM8 (Flag-TRPM8) (rat) (UniProt Q8R455); test: co-IP; PANC-1 cells transfected with Flag-TRPM8 with HA-LCK, control vector or siLCK; IP with anti-Flag antibody; Western blot for 14-3-3ζ
[4] = molecular target: Flag-tagged mutant TRPM8-Y1022F (Flag-M8-Y1022F) (rat) (UniProt Q8R455); test: cross-linking; PANC-1 cells transfected, treated with 1 μM DSS for 30 min before harvest; lysates on Western blot; with or without HA-LCK, siLCK, GFP-14-3-3ζ or si14-3-3ζ
[5] = molecular target: GST-tagged C-terminus of TRPM8 (GST-M8C) (rat) (UniProt Q8R455); test: pull-down; purified GST-M8C on glutathione beads incubated with lysates of transfected HEK293T cells; washes with 0.5% Nonidet P-40, 50 mM Tris/HCl, 150 mM NaCl, 1 mM EDTA; Western blot; only the target purified
[6] = molecular target: Flag-tagged N-terminus of TRPM8 (Flag-M8N) (rat) (UniProt Q8R455); test: co-IP; HEK293T cells transfected; IP with anti-Flag (or anti-HA) antibody; with or without HA-LCK, siLCK or 10 μM PP2; Western blot
[7] = molecular target: Flag-tagged mutant TRPM8-Y1022F (Flag-M8-Y1022F) (rat) (UniProt Q8R455); test: co-IP; AsPC-1 cells co-transfected with Flag- and GFP-tagged TRPM8; IP with anti-Flag antibody; with or without HA-LCK, PP2, siLCK or si14-3-3ζ; Western blot
[8] = molecular target: Flag-tagged full-length TRPM8 (Flag-TRPM8) (rat) (UniProt Q8R455); test: co-IP; HeLa cells co-transfected; IP with anti-HA or anti-Flag antibody (reciprocal); Western blot
[9] = molecular target: GFP-tagged C-terminus of TRPM8 (GFP-M8C) (rat) (UniProt Q8R455); test: as above
[10] = molecular target: Flag-tagged C-terminus of TRPM8 (M8-C) (rat) (UniProt Q8R455); test: co-IP; HEK293T cells transfected; IP with anti-Flag (or anti-HA) antibody; with or without HA-LCK, siLCK or 10 μM PP2; Western blot
[11] = molecular target: TRPM8, endogenous in PANC-1 cells (human (endogenous in PANC-1)) (UniProt Q7Z2W7); test: co-IP; native PANC-1 cells, endogenous proteins; Western blot
[12] = molecular target: 14-3-3ζ, endogenous (human (endogenous in PANC-1, HEK293T and MCF7)) (UniProt P63104); test: as above

- binding [1]: binds
- binding [2]: binds
- binding [3]: binds
Substance: 14-3-3ζ, endogenous (from UniProt P63104 1-245)

- binding [4]: binds
Substance: Flag-tagged mutant TRPM8-Y1022F (Flag-M8-Y1022F) (from UniProt Q8R455 1-1104)

- binding [5]: binds
Substance: GFP-fused 14-3-3ζ (GFP-14-3-3ζ) (from UniProt P63104 1-245)

- binding [6]: binds
Substance: GFP-tagged C-terminus of TRPM8 (GFP-M8C) (from UniProt Q8R455 980-1104) (domain or fragment)

- binding [7]: binds
Substance: GFP-tagged wild-type TRPM8 (GFP-TRPM8) (from UniProt Q8R455 1-1104)

- binding [8]: binds
- binding [9]: binds
- binding [5]: binds
Substance: HA-tagged BLK (HA-BLK) (from UniProt P51451 1-505) (enzyme)

- binding [8]: binds
- binding [9]: binds
- binding [10]: binds
- binding [6]: binds
- binding [5]: binds
Substance: HA-tagged LCK (HA-LCK) (from UniProt P06239 1-509) (enzyme)

- binding [11]: binds
Substance: LCK, endogenous (from UniProt P06239 1-509) (enzyme)

- binding [12]: binds
Substance: TRPM8, endogenous in PANC-1 cells (from UniProt Q7Z2W7 1-1104)
